The source of these data is the supplement of paper PMC4604168 (melanoma cell lines).

Some of the results follow. Many values rest on one well or one pass, so single values are uncertain.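 The apoptosis fraction was the count of cleaved-PARP antibody-stained nuclei relative to all DNA-stained nuclei, imaged in 1,536-well plates. Screening doses were set so most cells survived, and baseline and induced cleaved-PARP levels vary greatly across cell lines.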

This experiment relates to WM1745. Put plainly: cleaved PARP positive nuclei fraction relative to DMSO control; melanoma cells; higher = more apoptosis. The conditions noted are these: library dose: low library concentration; 72 h.
`Cn1cc(C2=C(c3cn(C4CCN(Cc5ccccn5)CC4)c4ccccc34)C(=O)NC2=O)c2ccccc21` [Enzastaurin] + OCCn1cc(-c2cnc3nnn(Cc4ccc5ncccc5c4)c3n2)cn1 [PF04217903] (first compound 0.8 µM, partner dose 1 µM): the “cleaved PARP positive nuclei fraction” value stood at 97.1%.

Turning to `N.N.[Cl][Pt][Cl]` [cisplatin] + CN(NC(=O)CC(=O)NN(C)C(=S)c1ccccc1)C(=S)c1ccccc1 [STA4783] (first compound 1.6 µM, partner dose 0.006 µM), the “cleaved PARP positive nuclei fraction” value came to 78.5%.

On to `C=C(c1ccc(C(=O)O)cc1)c1cc2c(cc1C)C(C)(C)CCC2(C)C` [Bexarotene] + O=C(Oc1ccc([N+](=O)[O-])cc1)N1CCC(C(O)(c2ccc3c(c2)OCO3)c2ccc3c(c2)OCO3)CC1 [JZL184] (first compound 2 µM, partner dose 1 µM), for which the “cleaved PARP positive nuclei fraction” value was 85.5%.

Regarding `Cn1sc(=O)n(Cc2ccccc2)c1=O` + O=C(Oc1ccc([N+](=O)[O-])cc1)N1CCC(C(O)(c2ccc3c(c2)OCO3)c2ccc3c(c2)OCO3)CC1 [JZL184] (first compound 0.4 µM, partner dose 1 µM), the “cleaved PARP positive nuclei fraction” value was 76.6%.

In the case of `C[As](C)SC[C@H](NC(=O)CC[C@H](N)C(=O)O)C(=O)NCC(=O)O` [Darinaparsin] + COc1cc(Nc2ncc(F)c(Nc3ccc4c(n3)NC(=O)C(C)(C)O4)n2)cc(OC)c1OC [Tamatinib] (first compound 0.4 µM, partner dose 0.4 µM), the “cleaved PARP positive nuclei fraction” value stood at 141%.

In the case of `CNC(=O)c1cc(Oc2ccc(NC(=O)Nc3ccc(Cl)c(C(F)(F)F)c3)cc2)ccn1` [sorafenib] + Cc1cc(SCc2sc(-c3ccc(C(F)(F)F)c(F)c3)nc2C)ccc1OCC(=O)O [GW0742] (first compound 0.4 µM, partner dose 2 µM), the “cleaved PARP positive nuclei fraction” value amounted to 244%.

In the case of `Cn1cc(C2=C(c3cn(C4CCN(Cc5ccccn5)CC4)c4ccccc34)C(=O)NC2=O)c2ccccc21` [Enzastaurin] + COC(=O)c1sccc1S(=O)(=O)Nc1ccc(Nc2ccccc2)cc1OC [GSK0660] (first compound 0.8 µM, partner dose 1 µM), the “cleaved PARP positive nuclei fraction” value stood at 98.1%.

`COc1cc([C@@H]2c3cc4c(cc3[C@@H](O[C@@H]3O[C@@H]5CO[C@@H](C)O[C@H]5[C@H](O)[C@H]3O)[C@H]3COC(=O)[C@H]23)OCO4)cc(OC)c1O` [etoposide] + C/C(O)=C(\C#N)C(=O)Nc1cc(Br)ccc1Br [LFM-A13] (first compound 0.02 µM, partner dose 2 µM): the “cleaved PARP positive nuclei fraction” value worked out at 82.9%.

For the molecule `Cn1cnc2c(F)c(Nc3ccc(Br)cc3Cl)c(C(=O)NOCCO)cc21` [selumetinib] + O=C(Oc1ccc([N+](=O)[O-])cc1)N1CCC(C(O)(c2ccc3c(c2)OCO3)c2ccc3c(c2)OCO3)CC1 [JZL184] (first compound 0.015 µM, partner dose 1 µM), the “cleaved PARP positive nuclei fraction” value was 82.2%.

Turning to `Nc1ncn([C@H]2C[C@H](O)[C@@H](CO)O2)c(=O)n1` [decitabine] + O=C(Oc1ccc([N+](=O)[O-])cc1)N1CCC(C(O)(c2ccc3c(c2)OCO3)c2ccc3c(c2)OCO3)CC1 [JZL184] (first compound 0.1 µM, partner dose 1 µM), the “cleaved PARP positive nuclei fraction” value stood at 77.3%.

For the molecule `C[As](C)SC[C@H](NC(=O)CC[C@H](N)C(=O)O)C(=O)NCC(=O)O` [Darinaparsin] + O=C(O)c1ccc(-c2c[nH]c3ncc(-c4ccccc4)cc23)cc1C1CCCC1 [GSK650394] (first compound 0.4 µM, partner dose 0.16 µM), the “cleaved PARP positive nuclei fraction” value came to 211%.

For the molecule `O=C(Nc1cc(C(F)(F)F)cc(C(F)(F)F)c1)c1cc(Cl)ccc1O` + O=C(Oc1ccc([N+](=O)[O-])cc1)N1CCC(C(O)(c2ccc3c(c2)OCO3)c2ccc3c(c2)OCO3)CC1 [JZL184] (first compound 0.016 µM, partner dose 1 µM), the “cleaved PARP positive nuclei fraction” value came out at 89.8%.

Take `Cn1cc(C2=C(c3cn(C4CCN(Cc5ccccn5)CC4)c4ccccc34)C(=O)NC2=O)c2ccccc21` [Enzastaurin] + O=C(Oc1ccc([N+](=O)[O-])cc1)N1CCC(C(O)(c2ccc3c(c2)OCO3)c2ccc3c(c2)OCO3)CC1 [JZL184] (first compound 0.8 µM, partner dose 1 µM): the “cleaved PARP positive nuclei fraction” value worked out at 91.9%.

In the case of `N.N.[Cl][Pt][Cl]` [cisplatin] + CO[C@@H]1[C@H](N(C)C(=O)c2ccccc2)C[C@H]2O[C@]1(C)n1c3ccccc3c3c4c(c5c6ccccc6n2c5c31)C(=O)NC4 [Midostaurin] (first compound 1.6 µM, partner dose 0.08 µM), the “cleaved PARP positive nuclei fraction” value was 103%.

For `CCN(CC)CCNC(=O)c1c(C)[nH]c(/C=C2\C(=O)Nc3ccc(F)cc32)c1C` [sunitinib] + O=C(Oc1ccc([N+](=O)[O-])cc1)N1CCC(C(O)(c2ccc3c(c2)OCO3)c2ccc3c(c2)OCO3)CC1 [JZL184] (first compound 0.4 µM, partner dose 1 µM), the “cleaved PARP positive nuclei fraction” value is 125%.

As for `N.N.[Cl][Pt][Cl]` [cisplatin] + Oc1cc(-c2nc(-c3ccccc3)[nH]c2-c2ccncc2)ccc1Cl [L779450] (first compound 1.6 µM, partner dose 0.2 µM), the “cleaved PARP positive nuclei fraction” value came to 102%.

On to `Clc1ccc(Nc2nnc(Cc3ccncc3)c3ccccc23)cc1` [vatalanib] + O=C(Oc1ccc([N+](=O)[O-])cc1)N1CCC(C(O)(c2ccc3c(c2)OCO3)c2ccc3c(c2)OCO3)CC1 [JZL184] (first compound 2 µM, partner dose 1 µM), for which the “cleaved PARP positive nuclei fraction” value turned out to be 107%.

With `C[As](C)SC[C@H](NC(=O)CC[C@H](N)C(=O)O)C(=O)NCC(=O)O` [Darinaparsin] + OCCn1cc(-c2cnc3nnn(Cc4ccc5ncccc5c4)c3n2)cn1 [PF04217903] (first compound 0.4 µM, partner dose 1 µM), the “cleaved PARP positive nuclei fraction” value is 116%.

On to `C[C@@H](N)c1ccc(C(=O)Nc2ccnc3[nH]ccc23)cc1` + Cc1cc(SCc2sc(-c3ccc(C(F)(F)F)c(F)c3)nc2C)ccc1OCC(=O)O [GW0742] (first compound 0.4 µM, partner dose 2 µM), for which the “cleaved PARP positive nuclei fraction” value was 95.1%.

As for `N.N.[Cl][Pt][Cl]` [cisplatin] + Cn1cncc1[C@@](N)(c1ccc(Cl)cc1)c1ccc2c(c1)c(-c1cccc(Cl)c1)cc(=O)n2C [tipifarnib] (first compound 1.6 µM, partner dose 0.01 µM), the “cleaved PARP positive nuclei fraction” value worked out at 95.2%.
